The values below come from patent US10994016B2, “Graphene oxide mediated cellular delivery of gadolinium-labeled molecules” (Northwestern University, priority 2015, dated 2021).

Data set [1] can be described thus: Molecular adsorption assay on GO (Gd by ICP-MS on washed GO pellet). As to conditions: for Adsorption on GO: in cell culture media (MEM, 10% FBS), 150 nm and 1500 nm GO, in words. The data set is classed as physicochemical.
Data set [2] concerns HeLa cells. Nature of the data set: Cell MR imaging of Magnevist-labeled cells in agarose phantoms (6-well labeling, Gd content by ICP-MS, 7 T). It is filed as cell-based. The method, then:
HeLa cells were labeled by Magnevist with and without 150 nm GO co-incubation in 6-well plates. 2 plates seeded at 300,000 cells per well were needed to produce a sufficient number of cells for imaging. For the condition of GO co-incubation, 4500 μL of Magnevist-GO mixture was prepared at a concentration of 93.3 mM Magnevist and 27 μg/mL GO. The mixture was allowed to adsorb for at least 15 minutes. 375 μL of the Magnevist-GO mixture was added to 625 μL of media in each well to reach a final concentration of 35 mM Magnevist and 10 μg/mL GO. The cells were incubated with the mixture for […]. To harvest, cells were rinsed in-plate three times with 3000 μL PBS and trypsinized using 400 μL 0.25% TrypLE. After 5 minutes of incubation at 37° C., 600 μL of media was added to each well and mixed by a pipette to ensure that all cells were lifted into suspension. After combining all the wells into a 12 mL cell suspension, 3 aliquots of 25 μL each were obtained for cell counting by Guava. 175 μL of Guava ViaCount reagent was used for dilution. Additionally, 200 μL of the cell suspension was transferred to a 1.5-mL microcentrifuge tube, centrifuged at 1000 RPM for 5 min (Thermo Scientific, Model Legend Micro 21R), and re-suspended in 200 μL media to wash the cells. […]

As for `O=C([O-])CN1CCN(CC(=O)[O-])CCN(CC(O)Cn2cc(CCCOP(=O)(O)O)nn2)CCN(CC(=O)[O-])CC1.[Gd+3]` (stereo not drawn) [Molecule 3], the “Adsorption on GO” value in data set [1] is given as “far second”.
For the compound “Diethylenetriaminepentaacetic acid gadolinium(III) dihydrogen salt hydrate [Molecule 11]”, the “Molecular adsorption without adsorption time” value in data set [1] (150 nm GO, mixture added directly to media) is “abolished”. The Measured adsorption in data set [1] (after repeated washing (FIG. 5A)) turned out to be 326 Gd/10^5 C. The “Label loss on centrifugation” value in data set [2] (with GO) stood at 69%; in data set [2] (without GO), 57%.
Turning to `O=C([O-])CN1CCN(CC(=O)[O-])CCN(CC(O)Cn2cc(CCCO)nn2)CCN(CC(=O)[O-])CC1.[Gd+3]` (stereo not drawn) [Molecule 2], the “Adsorption on GO” value in data set [1] is reported as “far second”.
